Screening data, single-dose tests

Chains of the proteins cited; added tags and fusions are not shown. Residues count along the entry.
UniProt P9WPC5, whole entry: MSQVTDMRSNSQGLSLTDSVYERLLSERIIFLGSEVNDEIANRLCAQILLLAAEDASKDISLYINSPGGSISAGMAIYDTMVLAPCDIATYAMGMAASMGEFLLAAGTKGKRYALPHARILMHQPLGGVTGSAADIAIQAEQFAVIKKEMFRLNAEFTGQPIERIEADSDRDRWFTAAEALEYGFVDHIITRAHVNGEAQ
UniProt P9WPC3, whole entry partner: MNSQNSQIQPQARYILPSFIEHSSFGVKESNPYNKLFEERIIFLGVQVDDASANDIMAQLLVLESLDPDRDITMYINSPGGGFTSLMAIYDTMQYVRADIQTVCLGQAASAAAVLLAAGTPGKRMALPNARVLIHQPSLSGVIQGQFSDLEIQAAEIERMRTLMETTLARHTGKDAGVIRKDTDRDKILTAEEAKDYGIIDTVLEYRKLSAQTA
UniProt A4I591, 1-473: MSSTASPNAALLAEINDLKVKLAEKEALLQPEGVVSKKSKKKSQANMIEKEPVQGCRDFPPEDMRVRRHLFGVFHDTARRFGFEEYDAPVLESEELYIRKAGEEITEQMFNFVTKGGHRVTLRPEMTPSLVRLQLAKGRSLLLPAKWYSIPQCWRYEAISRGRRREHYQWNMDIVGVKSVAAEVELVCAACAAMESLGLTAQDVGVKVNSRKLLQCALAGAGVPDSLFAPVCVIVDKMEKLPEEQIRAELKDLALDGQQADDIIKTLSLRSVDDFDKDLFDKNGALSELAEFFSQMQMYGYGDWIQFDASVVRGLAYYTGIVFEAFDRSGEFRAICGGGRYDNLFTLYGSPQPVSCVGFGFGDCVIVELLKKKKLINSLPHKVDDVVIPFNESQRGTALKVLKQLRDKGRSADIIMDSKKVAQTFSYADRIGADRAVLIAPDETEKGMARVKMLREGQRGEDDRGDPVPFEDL

From ChEMBL document CHEMBL3988442, “University of Dundee, Small-Polar-MMV Screening Library” (2021).

Results are given as percent effect. The controls that fix the scale are not given in the record; negative values are as filed. The compounds are a random part of those screened.

ClpP1P2: 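ClpP1P2, Mycobacterium tuberculosis (UniProt P9WPC5 and UniProt P9WPC3). Protease assay of ClpP1P2, read by the AMC dye that it sets free. Tested at 50 µM. Direction is inferred from only a few compounds that gave an IC50; most scored high, so higher reads as stronger inhibition. Most other retested compounds had strongly negative values. About 69,000 compounds were tested under these conditions; 0.015% (about 10) showed 50% or more at least once.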
LiHisRS: 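Histidine-tRNA ligase, Leishmania infantum (UniProt A4I591). Enzyme assay of histidyl-tRNA synthetase; the read-out is not stated. Compounds at 30 µM. Direction is inferred from retests: higher values go with stronger inhibition. The assay is labelled LdHisRS but filed under L. infantum. About 69,000 compounds were tested under these conditions; 0.6% (about 410) showed 50% or more at least once.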

CN1CC[C@]2(CN(Cc3cccs3)C[C@H]2c2ccccc2)C1=O read ClpP1P2: -2.283%; LiHisRS: 18.42%. For Cc1ccsc1CN(C)C(=O)C1CCCN(C(N)=O)C1 (configuration not stated) the result was ClpP1P2: 3.739%; LiHisRS: 3.333%. CCN1CCC2(CCC1=O)CN(c1nccc(N)n1)CCN2C (configuration not stated) read ClpP1P2: 3.578%; LiHisRS: 1.042%. Result for CCCc1nc(C)c(C(=O)NCc2ccc(C)n2C)s1 was ClpP1P2: 3.585%; LiHisRS: 16.67%. For NC(=O)c1cccc(NC(=O)CSc2ccc3c(c2)CCC3)c1 the result was ClpP1P2: 9.646%; LiHisRS: 4.464%.

For CC(C)c1nnc(NC(=O)N2CCN(C)CC2c2ccccc2)s1 (configuration not stated) the result was ClpP1P2: 13.97%; LiHisRS: 4.167%. COc1ncccc1CN1CCC2(CCCN2S(C)(=O)=O)CC1 read ClpP1P2: 13.17%; LiHisRS: 8.621%. O=C(NS(=O)(=O)c1ccccc1)c1ccccc1F read ClpP1P2: -3.976%; LiHisRS: -2.632%. O=C(CCc1cccs1)N1CCCC(n2ccnc2)C1 (configuration not stated) gave ClpP1P2: -18.56%; LiHisRS: 2.609%. With CCS(=O)(=O)N1CCC2(CN(c3cc(OC)ncn3)C2)C1 the screen gave ClpP1P2: 1.283%; LiHisRS: -6.195%.

For Cc1ccccc1C(=O)NC1CCN(Cc2ncc(C(C)(C)C)o2)CC1 the result was ClpP1P2: 7.572%; LiHisRS: 15.79%. Cc1ccc2c(c1)C1(CCNCC1)CC2NCCO (configuration not stated) gave ClpP1P2: -4.86%; LiHisRS: 9.91%. Result for CCCN(CCC)C(=O)c1cc(CN2CCC(O)CC2)on1 was ClpP1P2: -4.107%; LiHisRS: 1.075%. For OCC(O)CN(CCN1CCOCC1)Cc1ccco1 (configuration not stated) the result was ClpP1P2: -11.82%; LiHisRS: 6.993%. O=C1CC2(CCN(C(=O)c3ccccc3)C2)Nc2ccccc2N1 (configuration not stated) gave ClpP1P2: 20.83%; LiHisRS: 9.655%.

CC(CN1CCC2(CC1)c1nc[nH]c1CCN2S(C)(=O)=O)C(F)(F)F (configuration not stated) gave ClpP1P2: -2.227%; LiHisRS: 18.27%. For O=C(c1ccccc1)N1CCS(=O)(=O)[C@@H]2CCNCC[C@@H]21 the result was ClpP1P2: -1.914%; LiHisRS: -5.051%. Result for Cc1ccc(NC2CCN(C(=O)CCCc3cccs3)CC2)nn1 was ClpP1P2: -21.31%; LiHisRS: 6.25%. COCC(=O)N1CCN(S(=O)(=O)c2ccccc2)[C@@H](C(=O)OC)C1 read ClpP1P2: -16.51%; LiHisRS: 27.78%. CCN1CCC2(COCc3c(C)nc(N(C)C)nc32)C1 (configuration not stated) gave ClpP1P2: -9.802%; LiHisRS: 8.219%.

CCc1nc(CN2CCCC(N(C)Cc3cnc(C)s3)C2)no1 (configuration not stated) gave ClpP1P2: -5.696%; LiHisRS: 7.692%. Result for CCn1ccnc1CN(C)c1cc(OC)ncn1 was ClpP1P2: -2.34%; LiHisRS: 17.58%. Result for O=C(NCC1CC1)[C@@H]1CC[C@@H]2[C@@H](CCN2Cc2ccco2)O1 was ClpP1P2: 1.846%; LiHisRS: 6.944%. O=S(=O)(C1CC1)N1CCC2(CC1)COC(COc1ccccn1)C2 (configuration not stated) gave ClpP1P2: 1.173%; LiHisRS: 5.263%. Cc1nc2c(cc1C(=O)O)CCN(Cc1ccsc1)CC2 read ClpP1P2: -20.35%; LiHisRS: 16.67%.

With Cc1nnc(CN(Cc2ccccc2Cl)C2CCCC2)o1 the screen gave ClpP1P2: 3.886%; LiHisRS: 3.175%. For COCC(=O)N1CC[C@@H]2O[C@H](COCc3ccncc3)CC[C@@H]21 the result was ClpP1P2: 6.456%; LiHisRS: 10.53%. With CN(C)c1ccc(NC(=O)N2CCCC2c2ccsc2)cn1 (configuration not stated) the screen gave ClpP1P2: 9.037%; LiHisRS: 16.44%. Result for CN(Cc1ccco1)[C@@H]1CN(Cc2ccccn2)C[C@@H]2CCCO[C@@H]21 was ClpP1P2: -7.562%; LiHisRS: 1.818%. Cc1cnn(CC2CN(c3nc4ccccc4o3)CCO2)c1 (configuration not stated) gave ClpP1P2: -9.899%; LiHisRS: 11.86%.

COCC1CN(Cc2ccoc2)Cc2nn(C)cc21 (configuration not stated) read ClpP1P2: -0.8514%; LiHisRS: 8.257%. For Cc1noc(C)c1CN(C)C(=O)NC(C)Cc1ccco1 (configuration not stated) the result was ClpP1P2: -10.07%; LiHisRS: 10.67%. Result for O=C(c1ccccn1)N1CCC(S(=O)(=O)c2ccccc2)C1 (configuration not stated) was ClpP1P2: -19.58%; LiHisRS: 4.348%. CCn1cc(C(=O)Nc2ccc(C)cc2C(=O)NC)cn1 gave ClpP1P2: -5.479%; LiHisRS: 17.65%. O=C(NCc1nn(-c2ccccc2)c2c1CCC2)NC1CCC(O)CC1 (configuration not stated) gave ClpP1P2: -19.13%; LiHisRS: 14.68%.

For CN(C)C(=O)N1CCC(c2nc3ccc(-c4ccccc4)cn3n2)CC1 the result was ClpP1P2: -3.48%; LiHisRS: 9.615%. For Cn1ccnc1CNc1nccc(-c2ncnn2C)n1 the result was ClpP1P2: -12.28%; LiHisRS: 0%.

Some entries from above, unchanged:

Compound	ClpP1P2	LiHisRS
CCN1CCC2(COCc3c(C)nc(N(C)C)nc32)C1 (configuration not stated)	-9.802	8.219
CCCc1nc(C)c(C(=O)NCc2ccc(C)n2C)s1	3.585	16.67
O=S(=O)(C1CC1)N1CCC2(CC1)COC(COc1ccccn1)C2 (configuration not stated)	1.173	5.263